The values are deposited in ChEMBL (CHEMBL3988442, “University of Dundee, Small-Polar-MMV Screening Library” (2021)).

By UniProt entry, the sequences of proteins in these tests, tags left out. Residues count along the entry.
UniProt P9WFT3, whole entry: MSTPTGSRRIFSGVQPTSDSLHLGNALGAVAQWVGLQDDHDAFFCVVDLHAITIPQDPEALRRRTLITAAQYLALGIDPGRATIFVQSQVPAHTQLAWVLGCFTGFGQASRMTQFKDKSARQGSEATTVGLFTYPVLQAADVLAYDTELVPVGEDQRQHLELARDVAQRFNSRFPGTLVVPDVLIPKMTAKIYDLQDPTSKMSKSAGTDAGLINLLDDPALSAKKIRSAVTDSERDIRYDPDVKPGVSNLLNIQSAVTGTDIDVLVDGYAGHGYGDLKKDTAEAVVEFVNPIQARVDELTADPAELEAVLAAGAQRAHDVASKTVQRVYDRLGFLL
UniProt P9WNZ1, whole entry: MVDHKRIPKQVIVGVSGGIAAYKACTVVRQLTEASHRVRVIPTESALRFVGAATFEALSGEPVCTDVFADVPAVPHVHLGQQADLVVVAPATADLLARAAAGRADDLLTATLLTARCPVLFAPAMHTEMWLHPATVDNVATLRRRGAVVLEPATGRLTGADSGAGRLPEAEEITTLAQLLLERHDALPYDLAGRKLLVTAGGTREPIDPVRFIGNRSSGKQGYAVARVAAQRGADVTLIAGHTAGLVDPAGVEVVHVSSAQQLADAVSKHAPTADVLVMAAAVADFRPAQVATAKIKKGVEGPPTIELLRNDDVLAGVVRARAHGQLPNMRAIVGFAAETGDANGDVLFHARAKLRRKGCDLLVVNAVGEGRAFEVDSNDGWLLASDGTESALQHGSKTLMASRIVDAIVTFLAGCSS
UniProt A4I591, 1-473: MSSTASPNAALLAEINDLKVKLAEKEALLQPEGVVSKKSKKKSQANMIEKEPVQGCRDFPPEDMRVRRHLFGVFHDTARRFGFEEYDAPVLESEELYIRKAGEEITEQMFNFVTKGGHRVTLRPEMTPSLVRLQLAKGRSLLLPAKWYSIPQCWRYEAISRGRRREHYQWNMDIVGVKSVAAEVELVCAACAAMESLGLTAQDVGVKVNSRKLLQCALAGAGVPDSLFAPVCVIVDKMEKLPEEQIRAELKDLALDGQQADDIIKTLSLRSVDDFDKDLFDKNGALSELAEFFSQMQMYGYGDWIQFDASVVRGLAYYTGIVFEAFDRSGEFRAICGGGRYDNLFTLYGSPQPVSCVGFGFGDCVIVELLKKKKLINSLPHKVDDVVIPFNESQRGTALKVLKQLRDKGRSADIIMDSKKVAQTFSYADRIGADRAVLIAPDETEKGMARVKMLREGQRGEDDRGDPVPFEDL
UniProt I6X8D2, whole entry: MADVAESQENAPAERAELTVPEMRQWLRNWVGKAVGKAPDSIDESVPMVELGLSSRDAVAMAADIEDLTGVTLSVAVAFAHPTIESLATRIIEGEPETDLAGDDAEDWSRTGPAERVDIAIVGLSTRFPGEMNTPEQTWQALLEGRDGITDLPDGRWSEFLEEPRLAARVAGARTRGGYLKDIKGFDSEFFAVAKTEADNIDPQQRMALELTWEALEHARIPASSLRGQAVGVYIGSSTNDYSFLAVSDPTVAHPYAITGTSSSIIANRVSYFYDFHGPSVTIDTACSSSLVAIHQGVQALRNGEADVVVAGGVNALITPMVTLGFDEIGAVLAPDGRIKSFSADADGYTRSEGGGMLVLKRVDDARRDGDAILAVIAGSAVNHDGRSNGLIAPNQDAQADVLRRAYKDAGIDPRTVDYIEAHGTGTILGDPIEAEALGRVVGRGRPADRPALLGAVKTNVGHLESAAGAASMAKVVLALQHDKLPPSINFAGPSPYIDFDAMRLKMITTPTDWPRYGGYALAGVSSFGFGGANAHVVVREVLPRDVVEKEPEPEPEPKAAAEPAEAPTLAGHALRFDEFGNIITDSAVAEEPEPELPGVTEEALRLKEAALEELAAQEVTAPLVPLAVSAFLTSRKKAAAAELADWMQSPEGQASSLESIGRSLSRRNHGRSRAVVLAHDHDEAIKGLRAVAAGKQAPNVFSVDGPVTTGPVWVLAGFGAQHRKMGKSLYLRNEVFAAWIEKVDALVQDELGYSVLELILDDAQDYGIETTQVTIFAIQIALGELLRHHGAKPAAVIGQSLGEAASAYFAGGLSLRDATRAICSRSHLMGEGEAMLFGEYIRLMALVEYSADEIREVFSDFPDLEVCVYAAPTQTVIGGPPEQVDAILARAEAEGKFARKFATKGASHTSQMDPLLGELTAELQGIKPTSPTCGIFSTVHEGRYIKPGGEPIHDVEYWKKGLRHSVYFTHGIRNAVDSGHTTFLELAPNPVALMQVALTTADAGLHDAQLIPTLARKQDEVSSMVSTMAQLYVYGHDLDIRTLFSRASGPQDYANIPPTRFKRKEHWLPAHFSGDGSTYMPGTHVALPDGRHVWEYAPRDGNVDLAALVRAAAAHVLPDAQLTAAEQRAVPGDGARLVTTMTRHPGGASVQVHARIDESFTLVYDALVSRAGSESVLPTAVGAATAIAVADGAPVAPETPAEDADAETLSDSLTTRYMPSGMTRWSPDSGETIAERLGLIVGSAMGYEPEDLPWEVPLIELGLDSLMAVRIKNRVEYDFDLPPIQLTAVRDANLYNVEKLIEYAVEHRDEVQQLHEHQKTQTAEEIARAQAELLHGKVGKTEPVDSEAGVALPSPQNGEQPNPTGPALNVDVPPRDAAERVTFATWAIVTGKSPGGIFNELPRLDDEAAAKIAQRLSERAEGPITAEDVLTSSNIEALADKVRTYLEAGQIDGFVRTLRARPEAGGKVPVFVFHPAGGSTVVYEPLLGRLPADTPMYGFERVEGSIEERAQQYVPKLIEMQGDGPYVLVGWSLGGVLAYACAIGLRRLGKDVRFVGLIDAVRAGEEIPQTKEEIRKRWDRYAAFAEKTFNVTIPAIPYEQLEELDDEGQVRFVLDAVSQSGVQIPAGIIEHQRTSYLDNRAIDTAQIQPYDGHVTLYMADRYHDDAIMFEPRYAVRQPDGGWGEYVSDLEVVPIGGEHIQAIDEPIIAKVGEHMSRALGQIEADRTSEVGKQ

MtTrpRS: 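Enzyme assay of tryptophanyl-tRNA synthetase; the read-out is not stated. Target: Tryptophan-tRNA ligase, Mycobacterium tuberculosis (UniProt P9WFT3). Compounds at 10 µM. Higher most likely means stronger inhibition; the record gives no direction and few retests gave an IC50. Of about 65,000 compounds tested this way, about 64 (0.098%) reached 50% or more in at least one test.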
CoaBC: 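Enzyme assay of CoaBC with a phosphate dye (Biomol Green) read at 650 nm. Target: Coenzyme A biosynthesis protein CoaBC, Mycobacterium tuberculosis (UniProt P9WNZ1). Concentration: 30 µM. Direction is inferred from only a few compounds that gave an IC50; most scored high, so higher reads as stronger inhibition. Most strong results did not repeat in a second test. About 67,000 compounds were tested under these conditions; 0.06% (about 40) showed 50% or more at least once.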
LiHisRS: 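Histidine-tRNA ligase, Leishmania infantum (UniProt A4I591). Enzyme assay of histidyl-tRNA synthetase; the read-out is not stated. Tested at 30 µM. The record gives no direction; compounds that gave an IC50 in retests scored well above the rest, so higher reads as stronger inhibition. The assay is labelled LdHisRS but filed under L. infantum. Size under these conditions: about 69,000 compounds, about 410 of them at 50% or above in at least one test.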
Pks13 thioesterase: 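Enzyme assay of the thioesterase domain of polyketide synthase 13; the read-out is not stated. Target: Polyketide synthase Pks13, Mycobacterium tuberculosis (UniProt I6X8D2). Tested at 30 µM. Higher reads as stronger inhibition (inferred from which compounds were picked for retests). Size under these conditions: about 67,000 compounds, about 300 of them at 50% or above in at least one test.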

Each number is a percent effect as filed.
How 0% and 100% were set is not recorded. Most values in the screen are low, and negative values occur.
Compounds were drawn at random from those tested, without regard to their results.

structure: Cc1ccnn1CCNC(=O)C1CCN(S(=O)(=O)c2ccc(F)cc2)C1 (stereo unspecified)
MtTrpRS: 22.12%
CoaBC: -1.36%
LiHisRS: 4.828%
Pks13 thioesterase: -16.37%

structure: CN(Cc1ccsc1)C(=O)CS(=O)(=O)Cc1ccc(Cl)c(Cl)c1
MtTrpRS: -1.329%
CoaBC: 3.333%
LiHisRS: 18.67%
Pks13 thioesterase: 14.61%

structure: O=C(c1ccc(C2CCCN2C(=O)c2ccoc2)s1)N1CCOCC1 (stereo unspecified)
MtTrpRS: -1.784%
CoaBC: 3.738%
LiHisRS: 11.84%
Pks13 thioesterase: -34.14%

structure: CC(C)(C)OC(=O)NCCc1csc(N2CCCC2)n1
MtTrpRS: -0.362%
CoaBC: 8.678%
LiHisRS: 20.54%
Pks13 thioesterase: -22.99%

structure: CC(c1nc(C2CC2)no1)N1CCN(c2ccc(C#N)cn2)CC1 (stereo unspecified)
MtTrpRS: 0.1059%
CoaBC: 3.374%
LiHisRS: 11.43%
Pks13 thioesterase: -15.48%

structure: CC(C)(C)NC(=O)N1CCN2C(=O)OCC2C1 (stereo unspecified)
MtTrpRS: -3.439%
CoaBC: 3.205%
LiHisRS: 1.37%
Pks13 thioesterase: 16.95%

structure: O=S(=O)(c1cccs1)N1CCCC(c2nccs2)C1 (stereo unspecified)
MtTrpRS: 0.05798%
CoaBC: 2.92%
LiHisRS: 24.21%
Pks13 thioesterase: -15.04%

structure: Cc1nc(C)n(CC2CCCN(c3ncnc4sccc34)C2)n1 (stereo unspecified)
MtTrpRS: -3.834%
CoaBC: 2.017%
LiHisRS: 16.67%
Pks13 thioesterase: -4.478%

structure: Nc1nc(CCC(=O)N2C[C@@H](CN3CCCC3)C[C@H](CO)C2)n[nH]1
MtTrpRS: 1.445%
CoaBC: 11.3%
LiHisRS: 1.571%
Pks13 thioesterase: -21.54%

structure: CN(C)CCn1c2c(ccc1=O)CC(NCc1cccnc1)CC2 (stereo unspecified)
MtTrpRS: 3.776%
LiHisRS: 10.34%
Pks13 thioesterase: 19.05%

structure: CN(C)CC1(O)CCN(C(=O)Cc2ccc3c(c2)CCCC3)C1 (stereo unspecified)
MtTrpRS: -3.52%
CoaBC: -0.6849%
LiHisRS: 10.74%
Pks13 thioesterase: 6.231%

structure: CCN(Cc1cccc(C(N)=O)c1)c1ccccc1
MtTrpRS: 2.023%
CoaBC: 3.043%
LiHisRS: 1.571%
Pks13 thioesterase: 3.368%

structure: Cc1ccc(NC(C)C(=O)NCc2cccs2)cc1C (stereo unspecified)
MtTrpRS: 0.4989%
CoaBC: 7.036%
LiHisRS: 13.46%
Pks13 thioesterase: -14.79%

structure: COCCO[C@H]1CCN(C(=O)c2ccoc2C)[C@H]1Cc1cnn(C)c1
MtTrpRS: 2.314%
CoaBC: 10.37%
LiHisRS: 17.28%
Pks13 thioesterase: -4.006%

structure: CCn1ccnc1CN1CCN(C(C)C(=O)N2CCCCCC2)CC1 (stereo unspecified)
MtTrpRS: -1.687%
CoaBC: 7.28%
LiHisRS: 13.39%
Pks13 thioesterase: -14.28%

structure: Cc1oc(-c2ccsc2)nc1CC(=O)NCC(=O)Nc1cn[nH]c1
MtTrpRS: 5.358%
CoaBC: 5.076%
LiHisRS: 12.94%
Pks13 thioesterase: -14.18%

structure: Cc1c(C(=O)NS(=O)(=O)c2ccsc2)cnn1CC(C)C
MtTrpRS: -4.811%
CoaBC: -0.6274%
LiHisRS: -3.39%
Pks13 thioesterase: -0.1296%

structure: CSc1ccccc1CN1C[C@@H]2CC[C@H](C1)N(CC1CC1)C2=O
MtTrpRS: 0.942%
CoaBC: 2.051%
LiHisRS: 21.6%
Pks13 thioesterase: -448.9%

structure: O=C(CC1CC1)N1CCCn2nnc(CNc3ncccn3)c2C1
CoaBC: 1.22%
LiHisRS: 1.887%
Pks13 thioesterase: 7.573%

structure: CCN1CC2(CC1=O)CN(Cc1cnn(C)c1)CCN(C(=O)N(C)C)C2 (stereo unspecified)
MtTrpRS: 3.181%
CoaBC: 2.506%
LiHisRS: 15.38%
Pks13 thioesterase: 9.63%

structure: Cc1cc(Nc2ccc3c(c2)CC(=O)N3)nc(C(C)C)n1
MtTrpRS: -2.584%
CoaBC: -4.89%
LiHisRS: 14.52%
Pks13 thioesterase: -21.35%

structure: Cc1noc(-c2c[nH]nc2C2CCCN2C(=O)c2ccccc2)c1C (stereo unspecified)
MtTrpRS: 2.576%
CoaBC: 9.79%
LiHisRS: 4.255%
Pks13 thioesterase: -4.422%

structure: Cc1ccc(C)c(CN(CC(N)=O)C(C)C)c1
MtTrpRS: -1.943%
CoaBC: -3.694%
LiHisRS: 14.51%
Pks13 thioesterase: -36.26%

structure: Cc1nn(CCCNC(=O)C2CCN(S(C)(=O)=O)CC2)c(Cl)c1Cl
MtTrpRS: -2.023%
CoaBC: 0%
LiHisRS: 10.11%
Pks13 thioesterase: 0.8986%

structure: Cn1cnc(S(=O)(=O)N2CCCC2)c1Cl
MtTrpRS: 1.896%
CoaBC: 8.861%
LiHisRS: -8.654%
Pks13 thioesterase: -10.7%

structure: Cc1ccc(C(=O)N2CCC3(CC2)c2ccccc2[C@@H](N)[C@@H]3O)cc1F
MtTrpRS: 2.638%
CoaBC: 10.32%
LiHisRS: 11.32%
Pks13 thioesterase: 12.49%

structure: CC(Sc1nnc(C2CC2)n1CC(N)=O)c1ccc(F)cc1F (stereo unspecified)
MtTrpRS: -8.223%
CoaBC: 3.719%
LiHisRS: 9.333%
Pks13 thioesterase: 5.318%

structure: O=C(NCc1cc[nH]n1)N1CCN(c2ncccn2)CC1
MtTrpRS: -4.182%
CoaBC: 2.682%
LiHisRS: 8.036%
Pks13 thioesterase: -7.107%

structure: CS(=O)(=O)CCNC(=O)Nc1sc2ccccc2c1Cl
MtTrpRS: -3.641%
CoaBC: -1.033%
LiHisRS: 5.479%
Pks13 thioesterase: 14.88%

structure: CC(C)(CNc1ccc2ccc(F)cc2n1)NS(C)(=O)=O
MtTrpRS: 3.216%
CoaBC: -7.269%
LiHisRS: 7.895%
Pks13 thioesterase: -12.61%

structure: Cc1nn(C)c(C)c1NC(=O)CCn1ncc2ccccc21
MtTrpRS: 0.3886%
CoaBC: 0.6928%
LiHisRS: 10.34%
Pks13 thioesterase: 7.874%

structure: COCC(C)N(C)C(=O)c1nc(S(C)(=O)=O)n2ccccc12 (stereo unspecified)
MtTrpRS: 3.489%
CoaBC: -4.145%
LiHisRS: 2.128%
Pks13 thioesterase: -6.688%

structure: Cc1cc(O)c(OCC(=O)Nc2nc3c(s2)CCCCC3)cn1
MtTrpRS: 1.085%
CoaBC: 4.177%
LiHisRS: 20%
Pks13 thioesterase: 0.3549%

For reference, 3 entries once more:

{"structure": "Cc1c(C(=O)NS(=O)(=O)c2ccsc2)cnn1CC(C)C", "MtTrpRS": -4.811, "CoaBC": -0.6274, "LiHisRS": -3.39, "Pks13 thioesterase": -0.1296}
{"structure": "Cc1ccnn1CCNC(=O)C1CCN(S(=O)(=O)c2ccc(F)cc2)C1", "stereo": "stereo unspecified", "MtTrpRS": 22.12, "CoaBC": -1.36, "LiHisRS": 4.828, "Pks13 thioesterase": -16.37}
{"structure": "COCCO[C@H]1CCN(C(=O)c2ccoc2C)[C@H]1Cc1cnn(C)c1", "MtTrpRS": 2.314, "CoaBC": 10.37, "LiHisRS": 17.28, "Pks13 thioesterase": -4.006}